Data reported in patent US7858657B2 (Proix Pharmaceutical Corp., priority 2004, dated 2010).
Counter-ions that a name gives are not always drawn. At least one compound was matched to its structure with a doubt left.

Tests used:
[1] = tested on: A-549 nsc lung tumor xenograft; conditions: reported; PPARγ activation; cited from earlier work
[2] = Glucose tolerance studies; conditions: Pioglitazone 10 mg/kg ip QD × 7 with PX-866 10 mg/kg po; mean ± SE of 4 mice; listed as pioglitazone, hydrochloride

CCc1ccc(CCOc2ccc(CC3SC(=O)NC3=O)cc2)nc1 (centres unmarked) [Pioglitazone, pioglitazone hydrochloride]
tumor growth [1]: inhibit the growth
plasma glucose AUC0-180 min [2]: almost completely blocked the increase
